Results as given in article PMC11406190.
These are yes or no findings as the source states them, for the method shown. Binding seen in cells or lysates may run through a third protein. Some results given as binding are weak or reduced against the parent protein; the word gives no strength. Where a sequence is shown, tags or fusion partners need not be part of it.

Molecular target: T1, HA-tagged TBK1 (UniProt Q9UHD2)
T1 sequence: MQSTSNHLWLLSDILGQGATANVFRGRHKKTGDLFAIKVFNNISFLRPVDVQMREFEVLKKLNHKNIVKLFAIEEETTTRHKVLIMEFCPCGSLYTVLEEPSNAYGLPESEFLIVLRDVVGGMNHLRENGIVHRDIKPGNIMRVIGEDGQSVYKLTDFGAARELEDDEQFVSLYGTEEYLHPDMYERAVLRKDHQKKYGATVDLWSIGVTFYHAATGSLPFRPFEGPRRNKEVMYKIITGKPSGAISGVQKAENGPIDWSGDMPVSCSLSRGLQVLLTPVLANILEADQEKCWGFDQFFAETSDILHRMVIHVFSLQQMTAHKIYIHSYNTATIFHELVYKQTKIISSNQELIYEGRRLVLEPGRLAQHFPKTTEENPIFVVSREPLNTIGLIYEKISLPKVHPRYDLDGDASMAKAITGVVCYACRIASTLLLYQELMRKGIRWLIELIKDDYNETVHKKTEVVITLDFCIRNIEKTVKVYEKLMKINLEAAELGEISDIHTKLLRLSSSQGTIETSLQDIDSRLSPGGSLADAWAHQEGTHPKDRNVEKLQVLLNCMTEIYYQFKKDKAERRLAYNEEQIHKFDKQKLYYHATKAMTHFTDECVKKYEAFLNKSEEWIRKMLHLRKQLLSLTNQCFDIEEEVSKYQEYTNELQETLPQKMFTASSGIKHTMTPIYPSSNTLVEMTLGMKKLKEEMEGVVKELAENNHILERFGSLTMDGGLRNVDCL
Assay: co-IP

- binding: binds
Substance: Flag-tagged ZNF268a (from UniProt Q14587-1 1-947)
